No constants are given. Whether binding was seen depends on the method and setting. In cells and extracts the contact can be indirect. Here binding means that the protein was enriched with, or labelled near, the bait; the list need not be complete.
Molecular target: SBP-tagged IFITM1 protein (human) (UniProt P13164)
Experiment: affinity purification with mass spectrometry

Sequences of proteins named here, by UniProt entry; tags and fusion partners are left off.
UniProt P13164: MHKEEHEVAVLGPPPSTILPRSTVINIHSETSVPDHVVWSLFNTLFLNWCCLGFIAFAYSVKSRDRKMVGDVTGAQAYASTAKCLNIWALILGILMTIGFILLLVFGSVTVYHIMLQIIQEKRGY
UniProt Q07955: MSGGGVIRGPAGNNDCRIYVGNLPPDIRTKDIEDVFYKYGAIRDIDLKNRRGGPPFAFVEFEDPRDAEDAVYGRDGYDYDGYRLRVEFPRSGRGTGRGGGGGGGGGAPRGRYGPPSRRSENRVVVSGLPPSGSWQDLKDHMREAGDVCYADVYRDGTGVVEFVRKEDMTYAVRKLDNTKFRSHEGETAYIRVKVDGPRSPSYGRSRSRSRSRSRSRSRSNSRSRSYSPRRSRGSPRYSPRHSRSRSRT

Molecule | binding
SRSF3 (protein, UniProt P84103 1-164) MHRDSCPLDCKVYVGNLGNNGNKTELERAFGYYGPLRSVWVARNPPGFAFVEFEDPRDAADAVRELDGRTLCGCRVRVELSNGEKRSRNRGPPPSWGRRPRDDYRRRSPPPRRRSPRRRSFSRSRSRSLSRDRRRERSLSRERNHKPSRSFSRSRSRSRSNERK | binds
U2AF1 (protein, UniProt Q01081 1-240) MAEYLASIFGTEKDKVNCSFYFKIGACRHGDRCSRLHNKPTFSQTIALLNIYRNPQNSSQSADGLRCAVSDVEMQEHYDEFFEEVFTEMEEKYGEVEEMNVCDNLGDHLVGNVYVKFRREEDAEKAVIDLNNRWFNGQPIHAELSPVTDFREACCRQYEMGECTRGGFCNFMHLKPISRELRRELYGRRRKKHRSRSRSRERRSRSRDRGRGGGGGGGGGGGGRERDRRRSRDRERSGRF | binds
SRSF6 (protein, UniProt Q13247 1-344) MPRVYIGRLSYNVREKDIQRFFSGYGRLLEVDLKNGYGFVEFEDSRDADDAVYELNGKELCGERVIVEHARGPRRDRDGYSYGSRSGGGGYSSRRTSGRDKYGPPVRTEYRLIVENLSSRCSWQDLKDFMRQAGEVTYADAHKERTNEGVIEFRSYSDMKRALDKLDGTEINGRNIRLIEDKPRTSHRRSYSGSRSRSRSRRRSRSRSRRSSRSRSRSISKSRSRSRSRSKGRSRSRSKGRKSRSKSKSKPKSDRGSHSHSRSRSKDEYEKSRSRSRSRSPKENGKGDIKSKSRSRSQSRSNSPLPVPPSKARSVSPPPKRATSRSRSRSRSKSRSRSRSSSRD | binds

Next, values leading:

binding | Molecule
binds | serine and arginine-rich splicing factor 1 (SRSF1) (from UniProt Q07955 1-248)
binds | SRSF2 (protein, UniProt Q01130 1-221) MSYGRPPPDVEGMTSLKVDNLTYRTSPDTLRRVFEKYGRVGDVYIPRDRYTKESRGFAFVRFHDKRDAEDAMDAMDGAVLDGRELRVQMARYGRPPDSHHSRRGPPPRRYGGGGYGRRSRSPRRRRRSRSRSRSRSRSRSRSRYSRSKSRSRTRSRSRSTSKSRSARRSKSKSSSVSRSRSRSRSRSRSRSPPPVSKRESKSRSRSKSPPKSPEEEGAVSS
